This is an account of results in PMC7464559, “Synthesis, Optimization, Antifungal Activity, Selectivity, and CYP51 Binding of New 2-Aryl-3-azolyl-1-indolyl-propan-2-ols” (Pharmaceuticals, 2020).

The test concerns the target T1, aromatase (CYP19) (Homo sapiens, UniProt P11511).
T1 construct: Microsomal protein (0.1 mg) was added to start the reaction; from tissue; host or cells: microsomes; ('human placental microsomes')
T1 sequence (P11511 1-503): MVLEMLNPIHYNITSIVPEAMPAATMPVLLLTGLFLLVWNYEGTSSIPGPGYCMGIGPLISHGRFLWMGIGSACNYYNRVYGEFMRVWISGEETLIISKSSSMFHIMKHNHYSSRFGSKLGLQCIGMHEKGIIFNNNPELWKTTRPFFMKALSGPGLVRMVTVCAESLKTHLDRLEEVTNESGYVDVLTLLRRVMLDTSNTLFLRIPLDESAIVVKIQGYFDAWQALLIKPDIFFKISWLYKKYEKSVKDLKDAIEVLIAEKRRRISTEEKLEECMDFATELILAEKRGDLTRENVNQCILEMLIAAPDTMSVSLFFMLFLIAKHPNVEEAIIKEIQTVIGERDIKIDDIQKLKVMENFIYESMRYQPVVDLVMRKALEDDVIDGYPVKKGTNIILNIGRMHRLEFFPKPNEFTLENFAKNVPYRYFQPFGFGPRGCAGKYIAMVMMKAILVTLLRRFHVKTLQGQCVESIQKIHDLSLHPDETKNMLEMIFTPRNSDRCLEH
Kind of test: In vitro inhibition of aromatase. Format: biochemical.

pIC50: −log10 of the molar value.

In the case of `CC(C)(C#N)c1cc(Cn2cncn2)cc(C(C)(C)C#N)c1` [anastrozole, reference compound], the pIC50 (in general, −log10 of the IC50, conventionally taken in molar units) is 6.79.
